Some of the results follow. Shown are side measurements of this screen, not its main read-out; they come without a call. The list favours compounds with an active or inconclusive main result. Words in brackets tell the shape of the fitted curve; partial curves, single points and poor fits give uncertain potencies.
Experiment: qHTS Assay to Find Inhibitors of Chronic Active B-Cell Receptor Signaling
Settings: ABC-DLBCL IkBa-CBG/CBR reporter, luminescence ratio (green luciferase fused to IkBa over red control in TMD8 lymphoma cells), 4 h
Summary of the method: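 TMD8 ABC-DLBCL cells carrying doxycycline-inducible green luciferase fused to IkappaBalpha plus unfused red luciferase were exposed to compounds (up to 46 uM) for 4 hrs at 37C. Activity came from the overlap-corrected green/red luminescence ratio.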

[1] = measured here: CBR red luminescence, cell number
[2] = measured here: IkBa-CBG green luminescence

Row | SMILES | AC50 [1] | AC50 [2]
1 | CC(C)COC(=O)Nc1ccc(C(=O)O)cc1 | 3.16 µM [falling, partial curve, poor fit] | –
2 | CCN(CC(=O)NCc1cccs1)C(=O)c1ccc(OC)c(OC)c1 | 14.6 µM [rising, partial curve, poor fit] | –
3 | O=C(NC1CCSc2ccccc21)c1ccc(C(F)(F)F)cc1 (configuration not stated) | 0.501 µM [falling, full curve, poor fit] | –
4 | COCCn1c(C)cc(C(=O)COC(=O)CNC(=O)c2ccco2)c1C | 29.1 µM [rising, partial curve, poor fit] | –
5 | COc1ccccc1NC(=O)C1CC(=O)N(c2ccc(F)cc2)C1 (configuration not stated) | 5.17 µM [rising, full curve] | –
6 | Cc1ccc(S(=O)(=O)NCCNc2ccc([N+](=O)[O-])cc2C(F)(F)F)cc1 | 2 µM [falling, partial curve, poor fit] | –
7 | CN1CCN(CCCNC(=O)CCC(=O)N2CCOc3ccccc32)CC1 | 3.16 µM [rising, partial curve, poor fit] | –
8 | Cc1ccccc1NC(=O)Cc1nc(COC(=O)c2ccc(S(C)(=O)=O)c([N+](=O)[O-])c2)cs1 | 25.9 µM [falling, single point] | 32.6 µM [rising, partial curve, poor fit]
9 | COCc1cc(C)nc(SCc2ccccc2Cl)c1C#N | 12.6 µM [rising, partial curve, poor fit] | –
10 | CCn1cc(C2=NC(C(C)C)CO2)c2ccccc21 (configuration not stated) | 8.2 µM [rising, partial curve] | –
11 | CCc1nnc(NC(=O)CN2CCN(c3ccccc3OC)CC2)s1 | 1.26 µM [falling, full curve, poor fit] | –
12 | CCN(C(=O)c1ccc2c(Cl)c3c(nc2c1)CCC3)c1ccc(C)c(C)c1 | 23.1 µM [falling, partial curve, poor fit] | –
13 | CN1C(=O)C(O)(CC(=O)/C=C\c2ccc3c(c2)OCO3)c2ccccc21 (configuration not stated) | 25.1 µM [falling, single point] | –
14 | Cc1ccc(S(=O)(=O)N(CC2CO2)c2cc(Cl)ccc2Cl)cc1 (configuration not stated) | 8.91 µM [falling, partial curve, poor fit] | –
15 | O=C(NNC1CC(=O)N(c2ccccc2)C1=O)c1ccccc1Cl (configuration not stated) | 0.316 µM [falling, full curve, poor fit] | –
16 | CCOC(=O)C1CCCCN1C(=O)CCc1c(C)nc2cc(-c3ccccc3)nn2c1C (configuration not stated) | 1.64 µM [falling, partial curve, poor fit] | –
17 | CCNc1nc(NCC)n2c(SCc3nc4ccccc4c(=O)[nH]3)nnc2n1 | 29.1 µM [rising, partial curve, poor fit] | –
18 | COc1ccc(-c2cc(C(=O)Nc3cc(C)on3)c3ccccc3n2)c(OC)c1 | 7.94 µM [falling, partial curve, poor fit] | –
19 | COC(=O)c1sccc1-n1cc(C#N)c(=O)n(C)c1=O | 3.55 µM [rising, partial curve, poor fit] | –
20 | Cc1cc(CN2CCCC(C(=O)Nc3ccc(-c4nc5ccccc5[nH]4)cc3)C2)n[nH]1 (configuration not stated) | 11.2 µM [falling, partial curve] | –
21 | O=C(NC(CSCc1ccccc1)C(=O)N/N=C/c1ccc(O)cc1O)c1ccc([N+](=O)[O-])cc1 (configuration not stated) | 8.2 µM [falling, partial curve] | 20.6 µM [rising, partial curve, poor fit]

Row | SMILES | AC50 [1] | AC50 [2]
22 | CC(C)c1ccccc1OCC(=O)Nc1cc(S(=O)(=O)N2CCOCC2)ccc1N1CCCC1 | 13 µM [falling, single point] | –
23 | CC(=O)c1c(C)[nH]c(C(=O)OCc2ccccc2)c1C | 0.58 µM [rising, full curve] | –
24 | O=C(CSc1nccn1-c1ccccc1)NCc1ccc2c(c1)OCO2 | 16.4 µM [falling, partial curve, poor fit] | –
25 | CC(C)NC(NC(=O)/C=C/c1ccccc1)C(Cl)(Cl)Cl (configuration not stated) | 7.94 µM [rising, partial curve, poor fit] | –
26 | CCOc1cc(C(=O)N(C)Cc2cc3ccccc3[nH]c2=O)cc(OCC)c1OCC | 23.1 µM [rising, single point] | –
27 | COc1ccc(CS(=O)/C(Cl)=C(/Cl)C(=O)Nc2ccc(OC)nc2)cc1 (configuration not stated) | 2 µM [falling, full curve] | 2.51 µM [rising, full curve, poor fit]
28 | COc1ccccc1C(=O)Nc1ccc(-c2nnn(CC(=O)N3CCN(C(=O)c4ccco4)CC3)n2)cc1 | 1 µM [falling, partial curve, poor fit] | –
29 | O=C(Nc1nc(-c2ccccn2)cs1)c1ccco1 | 15.8 µM [falling, single point] | –
30 | COc1ccc(-c2nc3ccccn3c2NCc2ccc3c(c2)OCO3)cc1 | 29.1 µM [falling, single point] | –
31 | O=C(NNC(=O)c1cc2cc(Br)ccc2oc1=O)c1ccc(O)cc1 | 0.891 µM [falling, full curve] | –
32 | O=C(/C=C/Nc1cccc(C(F)(F)F)c1)c1ccc(Oc2ncccn2)cc1 | 0.631 µM [rising, full curve] | –
33 | CCOc1ccc(C(=O)C2CCN(CC(=O)Nc3ccccc3N3CCOCC3)CC2)cc1 | 12.6 µM [rising, partial curve, poor fit] | –
34 | CCn1ncc(CN2CCN(Cc3cccc(OC)c3)C(CCO)C2)c1C (configuration not stated) | 35.5 µM [falling, single point] | –
35 | Cc1nc2ccccc2n1CCOc1ccc(F)cc1 | 3.55 µM [rising, partial curve, poor fit] | –
36 | CC(OC(=O)CSc1ccccc1)C(=O)NC1CCCCC1C (configuration not stated) | 0.651 µM [falling, full curve] | –
37 | CCN(CC)S(=O)(=O)c1cc([N+](=O)[O-])ccc1NNC(=O)Nc1ccc(F)cc1 | 2.31 µM [falling, partial curve, poor fit] | –
38 | CC[C@]12c3[nH]c4cc(CCC(=O)N(C)C)ccc4c3CCN1C(=O)[C@@H](CC(=O)NCc1ccco1)C[C@@H]2C(=O)N1CCN(C(=O)C2CC2)CC1 | 14.6 µM [rising, partial curve] | –
39 | O=C(NCc1ccc(Cl)cc1)c1noc2c1CCCCC2 | 6.51 µM [rising, single point] | –
40 | N/C(=N\OC(=O)CCc1ccccc1)c1ccc(Cl)cc1 | 2.51 µM [rising, full curve] | –
41 | O=[N+]([O-])c1cccn2cc(-c3ccc(Br)cc3)nc12 | 15.8 µM [rising, single point] | –
42 | COc1ccc(CCn2c(C)cc(C(=O)COC(=O)c3cnc(C)cn3)c2C)cc1 | 8.2 µM [rising, partial curve] | –

Row | SMILES | AC50 [1] | AC50 [2]
43 | C/C(=N\NC(=S)Nc1c(C)cccc1C)c1ccc(O)cc1 | 20 µM [rising, single point] | 35.5 µM [falling, partial curve, poor fit]
44 | NC(=O)CCS(=O)(=O)CCN1CCCCC1 | 0.146 µM [falling, full curve, poor fit] | –
45 | O=C(Cn1cc(C(=O)c2cccs2)c2ccccc21)NCc1ccc2c(c1)OCO2 | 29.1 µM [falling, single point] | –
46 | CC(C)C(NC(=O)c1ccc(C(C)(C)C)cc1)C(=O)Nc1cccc(S(N)(=O)=O)c1 (configuration not stated) | 6.31 µM [falling, single point] | –
47 | CCOC(=O)C(NC(=O)Nc1ccc(Cl)cn1)(Oc1ccccc1)C(F)(F)F (configuration not stated) | 29.1 µM [rising, single point] | 3.66 µM [falling, partial curve, poor fit]
48 | Cc1ccc(NC(=O)Nc2ccc(F)cc2)nc1 | 29.1 µM [falling, single point] | –
49 | O=C(Cc1ccc(-n2cccc2)cc1)NCc1ccccc1Cl | 29.1 µM [rising, single point] | –
50 | O=C(CN1C(=O)S/C(=C\c2ccccc2)C1=O)NCCCn1ccnc1 | 3.98 µM [falling, full curve] | –
51 | CC(c1ccccc1)C1CC(=O)N(C2CCCCC2)C1=O (configuration not stated) | 25.9 µM [rising, single point] | –
52 | Cn1c2ccccc2c(=O)c2ccc(C#CC3(O)CCCCC3)cc21 | 4.47 µM [falling, full curve] | –
53 | COc1ccc(C(=O)NCCS(=O)(=O)NC2CCCC2)cc1 | 0.326 µM [rising, partial curve, poor fit] | –
54 | Cc1cc(Cl)ccc1OCC(=O)N[C@@H](Cc1ccccc1)c1nc2ccccc2[nH]1 | 23.1 µM [rising, single point] | –
55 | Cc1ccc(SCCNC(=O)c2ccc(C)c(S(=O)(=O)Nc3ccccc3C)c2)cc1 | 35.5 µM [falling, single point] | –
56 | CCS(=O)(=O)N1CCC(C(=O)N2CCc3ccccc3C2)CC1 | 0.112 µM [rising, full curve, poor fit] | –
57 | S=C(Nc1ccc2nsnc2c1)N1CCCC1 | 31.6 µM [falling, single point] | –
58 | C=CCN=c1scc(C)n1/N=C/c1ccc(O)c(O)c1 | 35.5 µM [falling, single point] | –
59 | Cc1ccc(S(=O)(=O)n2nc(OC(=O)c3c(F)cccc3Cl)cc2N)cc1 | 7.94 µM [falling, partial curve, poor fit] | –
60 | O=[N+]([O-])c1ccc(COc2cccc(CNc3ccc(F)cc3)c2)cc1 | 29.1 µM [falling, single point] | –
61 | CCCSc1nsc(N)n1 | 23.1 µM [rising, single point] | –
62 | CN(C)c1ccc(S(=O)(=O)N2CCCCC2)cc1NC(=O)C1CSC2(C)CCC(=O)N12 (configuration not stated) | 20.6 µM [rising, single point] | –

Individual results from the results shown:
In AC50 [1], C=CCN=c1scc(C)n1/N=C/c1ccc(O)c(O)c1 reads 35.5 µM [falling, single point]
In AC50 [1], CCS(=O)(=O)N1CCC(C(=O)N2CCc3ccccc3C2)CC1 reads 0.112 µM [rising, full curve, poor fit]
